In US20250368729A1:
No constants are given. Whether binding was seen depends on the method and setting. In cells and extracts the contact can be indirect. Some results given as binding are weak or reduced against the parent protein; the word gives no strength.

By UniProt entry, the sequences of proteins in these tests, tags left out. Residues count along the entry.
UniProt P05067, residues 672-711: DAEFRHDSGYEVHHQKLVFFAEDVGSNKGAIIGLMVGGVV
UniProt P10997, residues 34-70: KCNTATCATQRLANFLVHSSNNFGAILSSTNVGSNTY

Columns and labels:
[1] = molecular target: Aβ(1-40) amyloid-like fibrils (UniProt P05067); assay: pulldown of 125I-labelled peptide with the substrate pellet (correlation plot against 125I-Igp5)
hIAPP fibril = hIAPP fibril (UniProt P10997); assay: as above

- binding [1]: binds
- binding (hIAPP fibril): binds
Binder: KAQKAQAKQAKQAQKAQKAQAKQAKQ (125I label) [125I-p5]
